Measurements reported in PubChem BioAssay AID248 (DTP/NCI, 2004).
The list is a part of this screen's results and no random one: it gathers tests that were run many times, whatever their T/C, doses with no T/C, and many T/C values between a quarter and a half above the control. Other doses and runs of a compound stand elsewhere. T/C: endpoint of the treated group in % of that of the vehicle group. Some doses have a count of surviving animals in place of a T/C: the source files T/C as zero there, which appears to mark a toxic dose or a test without result, not a measured value. Some doses without a T/C left all or most animals alive at the check, yet need not have been tolerated: the source hardly ever lists a survival T/C far under the control, and the zero likely stands for such cases as well. Survivors were counted at the toxicity check, usually on the fifth day, unless a day is given; later deaths do not show. Schedules are NCI's codes, taken here to give the interval after Q, in days (D) or hours (H), and the number of doses after X. Some structures stand for samples that the source files as different forms (salt, stereo form or complex); doses refer to the form tested. Some schedule codes hold Z or #, which are not explained here. Some entries hold several experiments; the values are given in rising order. Where survival is the endpoint, this PubChem deposit counts one and a half times the control or more as active, and values a quarter to a half above the control carry no call in these data; other NCI protocols may use other cut-offs. Some T/C values are followed by the survivors on the day toxicity was checked, most often the fifth; where none is given, no animal had died by that day.

System: L1210 leukemia ip in BDF1 mice, survival T/C
Experiment: NCI In Vivo Anticancer Drug Screen. Data for tumor model L1210 Leukemia (intraperitoneal) in B6D2F1 (BDF1) mice
Settings: T/C endpoint: mean survival time, higher T/C = longer survival
[1] = dose: 20.0 mg/kg/injection, schedule: Q01DX009 (sc), vehicle: saline
[2] = dose: 400.0 mg/kg/injection, schedule: Q01DX001 (ip), vehicle: saline
[3] = dose: 400.0 mg/kg/injection, schedule: Q04DX003 (ip), vehicle: saline
[4] = dose: 300.0 mg/kg/injection, schedule: Q01DX001 (ip), vehicle: saline
[5] = dose: 100.0 mg/kg/injection, schedule: Q04DX003 (ip), vehicle: saline
[6] = dose: 200.0 mg/kg/injection, schedule: Q04DX003 (ip), vehicle: saline

**Q.** What does the source list for COc1cc(NS(C)(=O)=O)ccc1Nc1c2ccccc2nc2c(C)cccc12?
**A.** T/C (dose: 1.25 mg/kg/injection, schedule: Q01DX009 (ip), vehicle: saline): 139 % of control; T/C (dose: 2.5 mg/kg/injection, schedule: Q01DX009 (ip), vehicle: Klucel (hydroxypropylcellulose) (HPC)): 147 % of control; T/C (dose: 2.5 mg/kg/injection, schedule: Q01DX009 (ip), vehicle: saline): 133 % of control; T/C (dose: 2.5 mg/kg/injection, schedule: Q01DX009 (sc), vehicle: saline): 130 % of control; T/C (dose: 2.5 mg/kg/injection, schedule: Q04DX003 (ip), vehicle: saline): 127 % of control; T/C (dose: 5.0 mg/kg/injection, schedule: Q01DX009 (ip), vehicle: saline): 129 % of control; T/C (dose: 5.0 mg/kg/injection, schedule: Q01DX009 (sc), vehicle: saline): 127 and 145 % of control; T/C (dose: 5.0 mg/kg/injection, schedule: Q04DX003 (ip), vehicle: saline, evaluated on day 30): 134 % of control; T/C (dose: 5.0 mg/kg/injection, schedule: Q04DX003 (ip), vehicle: saline, evaluated on day 60): 139 % of control; T/C (dose: 10.0 mg/kg/injection, schedule: Q01DX009 (sc), vehicle: saline): 137 % of control; survivor count (dose: 20.0 mg/kg/injection, schedule: Q01DX009 (ip), vehicle: Klucel (hydroxypropylcellulose) (HPC)): 6 of 6; T/C [1]: 137 % of control; survivor count [1]: 10 of 10; survivor count (dose: 40.0 mg/kg/injection, schedule: Q04DX003 (ip), vehicle: saline): 3 of 6; survivor count (dose: 80.0 mg/kg/injection, schedule: Q04DX003 (ip), vehicle: saline): 1 of 6

**Q.** For NC(=S)N/N=C(/c1cccs1)C1CC1, which survivor count (dose: 15.0 mg/kg/injection, schedule: Q01DX Z (ip), vehicle: carboxymethylcellulose (CMC)) is on record?
**A.** Its survivor count is 0 of 6 and 3 of 6.

**Q.** What about the survivor count (dose: 30.0 mg/kg/injection, schedule: Q01DX Z (ip), vehicle: carboxymethylcellulose (CMC)) of the same molecule?
**A.** Its survivor count is 0 of 6.

**Q.** And the survivor count (dose: 32.0 mg/kg/injection, schedule: Q01DX Z (oral), vehicle: carboxymethylcellulose (CMC))?
**A.** The survivor count was 0 of 6.

**Q.** And the survivor count (dose: 60.0 mg/kg/injection, schedule: Q01DX Z (ip), vehicle: carboxymethylcellulose (CMC))?
**A.** The survivor count was 0 of 6.

**Q.** And the survivor count (dose: 120.0 mg/kg/injection, schedule: Q01DX Z (ip), vehicle: carboxymethylcellulose (CMC))?
**A.** Its survivor count is 0 of 6.

**Q.** How did the T/C (dose: 62.0 mg/kg/injection, schedule: Q01DX Z (ip), vehicle: carboxymethylcellulose (CMC)) turn out when O=C(Nc1ccc(C2=NCCN2)cc1)c1cncc(C(=O)Nc2ccc(C3=NCCN3)cc2)n1 was run?
**A.** Its T/C is 129 % of control.

**Q.** And the survivor count (dose: 375.0 mg/kg/injection, schedule: Q01DX Z (ip), vehicle: carboxymethylcellulose (CMC))?
**A.** Its survivor count is 0 of 6.

**Q.** What about the survivor count (dose: 500.0 mg/kg/injection, schedule: Q01DX Z (ip), vehicle: carboxymethylcellulose (CMC)) of the same molecule?
**A.** Its survivor count is 0 of 6.

**Q.** For C[N+](C)(C)Cc1ccccc1C=C(c1ccccc1)c1ccccc1, which survivor count (dose: 100.0 mg/kg/injection, schedule: Q04DX003 (ip), vehicle: Klucel (hydroxypropylcellulose) (HPC)) is on record?
**A.** The survivor count was 2 of 6.

**Q.** For CC(C)CN=C(N)N=C(N)N, which survivor count (dose: 200.0 mg/kg/injection, schedule: Q01DX009 (ip), vehicle: water) is on record?
**A.** Its survivor count is 1 of 6.

**Q.** What about the survivor count (dose: 400.0 mg/kg/injection, schedule: Q01DX001 (ip), vehicle: water) of the same molecule?
**A.** Its survivor count is 2 of 6.

**Q.** For CCN(CC)CCCC#N, which survivor count [2] is on record?
**A.** The survivor count was 1 of 4.

**Q.** With CCOc1cc(C#N)c(OCC)cc1N as the molecule, how does the survivor count [2] read?
**A.** Its survivor count is 2 of 4.

**Q.** With CC(=O)OCC1OC(N2C(=O)/C(=C/c3ccncc3)SC2=S)C(OC(C)=O)C(OC(C)=O)C1OC(C)=O (stereo not given) as the molecule, how does the survivor count (dose: 200.0 mg/kg/injection, schedule: Q01DX005 (ip), vehicle: other) read?
**A.** Its survivor count is 6 of 6.

**Q.** With C1=CN2CC(c3ccccc3)=NNC2c2ccccc21 (stereo not given) as the molecule, how does the survivor count (dose: 200.0 mg/kg/injection, schedule: Q04DX003 (ip), vehicle: alcohol) read?
**A.** Its survivor count is 2 of 6.

**Q.** What about the survivor count (dose: 400.0 mg/kg/injection, schedule: Q04DX003 (ip), vehicle: alcohol) of the same molecule?
**A.** The survivor count was 0 of 6.

**Q.** What about the survivor count [3] of the same molecule?
**A.** Its survivor count is 3 of 6.

**Q.** O=C(Cc1ccccc1)C(Cl)c1ccccc1 (stereo not given) was tested. Which survivor count [2] did it give?
**A.** Its survivor count is 1 of 6.

**Q.** For O=C1c2ccccc2C(=O)c2c(NC(=O)C(Cl)CCl)cccc21 (stereo not given), which survivor count (dose: 75.0 mg/kg/injection, schedule: Q01DX001 (ip), vehicle: saline) is on record?
**A.** Its survivor count is 6 of 6.

**Q.** What about the survivor count [4] of the same molecule?
**A.** Its survivor count is 6 of 6.

**Q.** For CCN(CC)CCCC(C)Nc1cc(N)nc2nc(-c3cc(OC)c(OC)c(OC)c3)cnc12 (stereo not given) (tested in a mixture with another compound), which survivor count (dose: 150.0 mg/kg/injection, schedule: Q01DX001 (ip), vehicle: saline) is on record?
**A.** The survivor count was 0 of 6.

**Q.** What about the survivor count [4] of the same molecule?
**A.** The survivor count was 0 of 6.

**Q.** For CCN(CC)CC(=O)NCC(CCCCN1CCCCC1)(c1cccc2ccccc12)C(C)C (stereo not given), which survivor count [5] is on record?
**A.** Its survivor count is 5 of 6.

**Q.** What about the survivor count [6] of the same molecule?
**A.** The survivor count was 0 of 6.

**Q.** And the survivor count [3]?
**A.** The survivor count was 0 of 6.

**Q.** With CN(N=O)c1ccc(CC2CCc3ccccc32)cc1 (stereo not given) as the molecule, how does the survivor count (dose: 100.0 mg/kg/injection, schedule: Q01DX009 (ip), vehicle: Klucel (hydroxypropylcellulose) (HPC)) read?
**A.** Its survivor count is 6 of 6.

**Q.** And the T/C (dose: 200.0 mg/kg/injection, schedule: Q01DX009 (ip), vehicle: Klucel (hydroxypropylcellulose) (HPC))?
**A.** The T/C was 138 % of control.

**Q.** And the survivor count (dose: 400.0 mg/kg/injection, schedule: Q01DX009 (ip), vehicle: Klucel (hydroxypropylcellulose) (HPC))?
**A.** The survivor count was 6 of 6.

**Q.** With CC(C)(C)N1CC1 as the molecule, how does the survivor count [2] read?
**A.** The survivor count was 1 of 6.

**Q.** Which survivor count [4] does the source give for CC(C)C1(Cc2ccccc2)C(=O)NC(=S)NC1=O here?
**A.** The survivor count was 3 of 6.

**Q.** With C#CCCC#C as the molecule, how does the survivor count (dose: 400.0 mg/kg/injection, schedule: Q04DX003 (ip), vehicle: saline with Tween-80) read?
**A.** Its survivor count is 3 of 6.

**Q.** What does the source list for Cc1ccc2nc3c4ccccc4scc-3c2c1?
**A.** survivor count (dose: 200.0 mg/kg/injection, schedule: Q04DX003 (ip), vehicle: acetone): 4 of 6; survivor count (dose: 400.0 mg/kg/injection, schedule: Q04DX003 (ip), vehicle: acetone): 1 of 6

**Q.** Which survivor count [5] does the source give for Nc1ccc(Nc2c3ccccc3nc3ccccc23)cc1 here?
**A.** The survivor count was 2 of 6.

**Q.** And the survivor count [6]?
**A.** Its survivor count is 0 of 6.

**Q.** And the survivor count [3]?
**A.** Its survivor count is 0 of 6.

**Q.** With N#C/C(=C\c1c[nH]c2ccccc12)c1ccc([N+](=O)[O-])cc1 as the molecule, how does the survivor count (dose: 400.0 mg/kg/injection, schedule: Q04DX002 (ip), vehicle: gum acacia) read?
**A.** Its survivor count is 1 of 3.

**Q.** What does the source list for Cc1ccc(-c2ccc(-c3ccc(C)cc3)o2)cc1?
**A.** survivor count (dose: 100.0 mg/kg/injection, schedule: Q01DX001 (ip), vehicle: Klucel (hydroxypropylcellulose) (HPC)): 6 of 6; survivor count (dose: 400.0 mg/kg/injection, schedule: Q01DX001 (ip), vehicle: Klucel (hydroxypropylcellulose) (HPC)): 6 of 6

**Q.** For CCC1CCCCC1(O)CC (stereo not given), which survivor count (dose: 400.0 mg/kg/injection, schedule: Q01DX009 (ip), vehicle: saline) is on record?
**A.** The survivor count was 1 of 6.

**Q.** What does the source list for CC1OC(O[C@H]2C[C@](O)(C(C)O)Cc3c(O)c4c(c(O)c32)C(=O)c2c(O)cccc2C4=O)CC(NC=O)C1O (stereo not given in full)?
**A.** T/C (dose: 0.1 mg/kg/injection, schedule: Q01DX009 (ip), vehicle: saline): 126 % of control; T/C (dose: 0.2 mg/kg/injection, schedule: Q01DX009 (ip), vehicle: saline): 133 % of control; T/C (dose: 0.4 mg/kg/injection, schedule: Q01DX001 (ip), vehicle: saline): 138 % of control [5 of 6 alive]; T/C (dose: 0.4 mg/kg/injection, schedule: Q01DX009 (ip), vehicle: saline): 133 % of control; T/C (dose: 0.4 mg/kg/injection, schedule: Q03DX003 (ip), vehicle: saline): 140 % of control; survivor count (dose: 0.8 mg/kg/injection, schedule: Q01DX001 (ip), vehicle: saline): 2 of 6; T/C (dose: 0.8 mg/kg/injection, schedule: Q03DX003 (ip), vehicle: saline): 145 % of control; T/C (dose: 1.6 mg/kg/injection, schedule: Q01DX001 (ip), vehicle: saline): 143 % of control; T/C (dose: 1.6 mg/kg/injection, schedule: Q03DX003 (ip), vehicle: saline): 140 % of control

**Q.** With COc1ccc2cc[n+](C)cc2c1 as the molecule, how does the survivor count [5] read?
**A.** Its survivor count is 1 of 6.

**Q.** What about the survivor count [6] of the same molecule?
**A.** Its survivor count is 0 of 6.

**Q.** And the survivor count [3]?
**A.** Its survivor count is 0 of 6.

**Q.** What does the source list for O=C(NCCF)NC1CS(=O)(=O)CS(=O)(=O)C1?
**A.** survivor count (dose: 75.0 mg/kg/injection, schedule: Q01DX001 (ip), vehicle: other): 0 of 6; survivor count (dose: 150.0 mg/kg/injection, schedule: Q01DX001 (ip), vehicle: other): 0 of 6; survivor count (dose: 300.0 mg/kg/injection, schedule: Q01DX001 (ip), vehicle: other): 0 of 6
